Test results taken from patent US20070160553A1, “Use of agents for the cosmetic treatment of keratin-containing material” (WELLA AG, priority 2004, published 2007).
At least one compound was matched to its structure with a doubt left.

Test: Conventional hair-care effects (combability, luster, volume, friction)
Settings: in appropriate formulations
From the text: This is in stark contrast to the known hair-care actions of other representatives of this class of substances, for example of betaine (trimethylammonioacetate) or carnitine [3-hydroxy-4-(trimethylammonio)butyric acid]. […] Other hair-care criteria such as an increase in hair volume or an improvement in the hair fullness or hair styling were also not observed.
Tests for determining the triboelectric properties have also shown that depending on the use concentration of compounds of formulas (I) and (II) the electrostatic chargability of hair was reduced. […] This is particularly surprising considering that in no comparative test did the formulation containing as active ingredient a compound of formula (I) and (II) show a reduction in the mechanical coefficient of friction. […] The protective function therefore is independent of the typical hair-care criteria and consists only of attenuating the effects of hair-damaging factors.

C[N+](C)(C)CC(O)CC(=O)[O-] (centres unmarked) [carnitine, 3-hydroxy-4-(trimethylammonio)butyric acid]
combability: pronounced improvement
luster of the hair: definitely improved
